Reference: article doi:10.1101/567305
No constants are given. Whether binding was seen depends on the method and setting. In cells and extracts the contact can be indirect. Some results given as binding are weak or reduced against the parent protein; the word gives no strength. For some of these results: Tags and fused reporters may be left off the sequences shown.

T1: YFP-EML4 full length (human) (UniProt Q9HC35)
T1 sequence: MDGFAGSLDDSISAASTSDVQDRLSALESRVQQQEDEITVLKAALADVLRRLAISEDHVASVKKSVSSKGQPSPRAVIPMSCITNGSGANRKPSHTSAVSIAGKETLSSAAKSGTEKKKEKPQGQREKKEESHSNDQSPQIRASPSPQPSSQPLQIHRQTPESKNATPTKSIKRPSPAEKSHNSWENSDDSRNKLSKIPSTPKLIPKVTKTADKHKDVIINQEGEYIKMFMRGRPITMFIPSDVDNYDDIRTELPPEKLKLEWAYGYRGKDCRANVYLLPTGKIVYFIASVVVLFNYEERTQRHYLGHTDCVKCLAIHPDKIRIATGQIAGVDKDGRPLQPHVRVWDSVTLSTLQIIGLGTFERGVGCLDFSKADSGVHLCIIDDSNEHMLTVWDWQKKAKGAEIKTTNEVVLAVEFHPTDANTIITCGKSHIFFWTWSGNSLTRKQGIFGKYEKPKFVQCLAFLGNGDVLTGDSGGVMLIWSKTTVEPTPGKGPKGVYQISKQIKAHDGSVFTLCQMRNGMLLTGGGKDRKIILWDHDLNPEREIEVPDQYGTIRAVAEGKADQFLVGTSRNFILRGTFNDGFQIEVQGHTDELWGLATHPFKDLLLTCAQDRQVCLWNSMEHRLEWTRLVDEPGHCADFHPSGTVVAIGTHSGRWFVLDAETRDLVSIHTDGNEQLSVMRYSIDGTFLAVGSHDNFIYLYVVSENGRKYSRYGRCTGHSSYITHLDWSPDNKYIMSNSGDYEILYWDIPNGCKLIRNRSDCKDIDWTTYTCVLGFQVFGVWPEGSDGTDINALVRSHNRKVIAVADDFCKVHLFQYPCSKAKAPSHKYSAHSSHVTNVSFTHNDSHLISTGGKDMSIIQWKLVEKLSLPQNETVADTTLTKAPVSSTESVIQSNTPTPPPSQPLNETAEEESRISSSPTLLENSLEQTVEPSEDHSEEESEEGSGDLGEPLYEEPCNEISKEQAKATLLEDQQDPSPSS

T2: EML4 (endogenous), echinoderm microtubule-associated protein-like 4 (human (endogenous in U2OS)) (UniProt Q9HC35)
T2 sequence: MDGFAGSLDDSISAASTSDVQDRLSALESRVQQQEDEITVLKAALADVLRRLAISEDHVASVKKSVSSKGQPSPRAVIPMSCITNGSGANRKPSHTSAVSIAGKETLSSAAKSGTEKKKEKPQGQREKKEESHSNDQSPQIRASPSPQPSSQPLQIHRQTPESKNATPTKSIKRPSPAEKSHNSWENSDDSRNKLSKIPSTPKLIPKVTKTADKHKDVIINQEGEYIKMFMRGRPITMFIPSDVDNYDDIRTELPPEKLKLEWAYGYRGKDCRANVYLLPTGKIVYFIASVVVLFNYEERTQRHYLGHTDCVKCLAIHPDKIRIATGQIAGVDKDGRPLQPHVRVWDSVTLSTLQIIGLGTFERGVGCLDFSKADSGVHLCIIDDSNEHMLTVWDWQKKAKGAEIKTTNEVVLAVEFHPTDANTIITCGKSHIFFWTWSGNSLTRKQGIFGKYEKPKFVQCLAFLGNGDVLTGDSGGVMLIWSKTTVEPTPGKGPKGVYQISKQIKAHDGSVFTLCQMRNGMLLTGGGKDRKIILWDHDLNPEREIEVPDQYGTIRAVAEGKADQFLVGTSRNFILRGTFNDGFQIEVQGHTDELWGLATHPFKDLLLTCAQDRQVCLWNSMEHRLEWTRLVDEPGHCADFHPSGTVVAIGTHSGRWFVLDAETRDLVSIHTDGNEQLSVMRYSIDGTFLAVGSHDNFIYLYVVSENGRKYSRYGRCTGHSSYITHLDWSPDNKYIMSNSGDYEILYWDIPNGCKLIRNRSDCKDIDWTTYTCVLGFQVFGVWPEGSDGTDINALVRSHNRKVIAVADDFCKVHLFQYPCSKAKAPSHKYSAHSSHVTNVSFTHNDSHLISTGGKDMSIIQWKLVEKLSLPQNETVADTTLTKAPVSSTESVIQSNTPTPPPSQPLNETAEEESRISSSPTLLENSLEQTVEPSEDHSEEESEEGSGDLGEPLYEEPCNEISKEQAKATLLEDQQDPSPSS

T3: NEK9 (endogenous) (human (endogenous in U2OS)) (UniProt Q8TD19)
T3 sequence: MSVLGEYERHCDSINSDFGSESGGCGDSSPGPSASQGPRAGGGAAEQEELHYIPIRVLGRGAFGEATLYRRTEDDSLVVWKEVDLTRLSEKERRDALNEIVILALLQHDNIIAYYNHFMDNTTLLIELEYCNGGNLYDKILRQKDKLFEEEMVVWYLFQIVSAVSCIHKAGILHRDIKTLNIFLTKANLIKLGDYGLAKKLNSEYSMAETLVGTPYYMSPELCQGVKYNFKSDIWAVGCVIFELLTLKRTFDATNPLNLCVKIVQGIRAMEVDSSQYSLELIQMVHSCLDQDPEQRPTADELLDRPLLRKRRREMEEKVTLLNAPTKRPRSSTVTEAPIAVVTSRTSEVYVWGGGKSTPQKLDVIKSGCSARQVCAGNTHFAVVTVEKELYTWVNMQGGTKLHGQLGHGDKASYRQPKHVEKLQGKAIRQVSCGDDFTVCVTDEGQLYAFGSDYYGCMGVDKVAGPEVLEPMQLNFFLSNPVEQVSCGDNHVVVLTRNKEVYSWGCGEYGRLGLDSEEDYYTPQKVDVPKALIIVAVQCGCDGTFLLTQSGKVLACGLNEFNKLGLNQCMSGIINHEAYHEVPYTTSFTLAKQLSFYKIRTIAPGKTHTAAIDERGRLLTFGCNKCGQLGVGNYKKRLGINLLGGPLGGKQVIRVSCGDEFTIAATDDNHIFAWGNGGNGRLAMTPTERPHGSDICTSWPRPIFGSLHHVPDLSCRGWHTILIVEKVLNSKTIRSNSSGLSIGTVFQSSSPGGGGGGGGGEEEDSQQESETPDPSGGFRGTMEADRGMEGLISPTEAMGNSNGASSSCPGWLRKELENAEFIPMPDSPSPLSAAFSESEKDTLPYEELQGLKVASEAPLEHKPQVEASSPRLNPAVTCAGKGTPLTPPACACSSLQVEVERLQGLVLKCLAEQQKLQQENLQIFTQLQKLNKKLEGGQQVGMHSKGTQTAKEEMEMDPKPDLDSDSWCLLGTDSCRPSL


Columns and labels:
Assay in all cases: co-IP
[1] = biological target: T1, YFP-EML4 full length (human)
[2] = biological target: T2, EML4 (endogenous), echinoderm microtubule-associated protein-like 4 (human (endogenous in U2OS))
[3] = biological target: T3, NEK9 (endogenous) (human (endogenous in U2OS))

binding [1]	binding [2]	Binder	binding [3]
binds	binds	NEK9 (endogenous) (protein, UniProt Q8TD19 1-979) MSVLGEYERHCDSINSDFGSESGGCGDSSPGPSASQGPRAGGGAAEQEELHYIPIRVLGRGAFGEATLYRRTEDDSLVVWKEVDLTRLSEKERRDALNEIVILALLQHDNIIAYYNHFMDNTTLLIELEYCNGGNLYDKILRQKDKLFEEEMVVWYLFQIVSAVSCIHKAGILHRDIKTLNIFLTKANLIKLGDYGLAKKLNSEYSMAETLVGTPYYMSPELCQGVKYNFKSDIWAVGCVIFELLTLKRTFDATNPLNLCVKIVQGIRAMEVDSSQYSLELIQMVHSCLDQDPEQRPTADELLDRPLLRKRRREMEEKVTLLNAPTKRPRSSTVTEAPIAVVTSRTSEVYVWGGGKSTPQKLDVIKSGCSARQVCAGNTHFAVVTVEKELYTWVNMQGGTKLHGQLGHGDKASYRQPKHVEKLQGKAIRQVSCGDDFTVCVTDEGQLYAFGSDYYGCMGVDKVAGPEVLEPMQLNFFLSNPVEQVSCGDNHVVVLTRNKEVYSWGCGEYGRLGLDSEEDYYTPQKVDVPKALIIVAVQCGCDGTFLLTQSGKVLACGLNEFNKLGLNQCMSGIINHEAYHEVPYTTSFTLAKQLSFYKIRTIAPGKTHTAAIDERGRLLTFGCNKCGQLGVGNYKKRLGINLLGGPLGGKQVIRVSCGDEFTIAATDDNHIFAWGNGGNGRLAMTPTERPHGSDICTSWPRPIFGSLHHVPDLSCRGWHTILIVEKVLNSKTIRSNSSGLSIGTVFQSSSPGGGGGGGGGEEEDSQQESETPDPSGGFRGTMEADRGMEGLISPTEAMGNSNGASSSCPGWLRKELENAEFIPMPDSPSPLSAAFSESEKDTLPYEELQGLKVASEAPLEHKPQVEASSPRLNPAVTCAGKGTPLTPPACACSSLQVEVERLQGLVLKCLAEQQKLQQENLQIFTQLQKLNKKLEGGQQVGMHSKGTQTAKEEMEMDPKPDLDSDSWCLLGTDSCRPSL	
binds		myc-tagged wild-type NEK9 (protein, UniProt Q8TD19 1-979) MSVLGEYERHCDSINSDFGSESGGCGDSSPGPSASQGPRAGGGAAEQEELHYIPIRVLGRGAFGEATLYRRTEDDSLVVWKEVDLTRLSEKERRDALNEIVILALLQHDNIIAYYNHFMDNTTLLIELEYCNGGNLYDKILRQKDKLFEEEMVVWYLFQIVSAVSCIHKAGILHRDIKTLNIFLTKANLIKLGDYGLAKKLNSEYSMAETLVGTPYYMSPELCQGVKYNFKSDIWAVGCVIFELLTLKRTFDATNPLNLCVKIVQGIRAMEVDSSQYSLELIQMVHSCLDQDPEQRPTADELLDRPLLRKRRREMEEKVTLLNAPTKRPRSSTVTEAPIAVVTSRTSEVYVWGGGKSTPQKLDVIKSGCSARQVCAGNTHFAVVTVEKELYTWVNMQGGTKLHGQLGHGDKASYRQPKHVEKLQGKAIRQVSCGDDFTVCVTDEGQLYAFGSDYYGCMGVDKVAGPEVLEPMQLNFFLSNPVEQVSCGDNHVVVLTRNKEVYSWGCGEYGRLGLDSEEDYYTPQKVDVPKALIIVAVQCGCDGTFLLTQSGKVLACGLNEFNKLGLNQCMSGIINHEAYHEVPYTTSFTLAKQLSFYKIRTIAPGKTHTAAIDERGRLLTFGCNKCGQLGVGNYKKRLGINLLGGPLGGKQVIRVSCGDEFTIAATDDNHIFAWGNGGNGRLAMTPTERPHGSDICTSWPRPIFGSLHHVPDLSCRGWHTILIVEKVLNSKTIRSNSSGLSIGTVFQSSSPGGGGGGGGGEEEDSQQESETPDPSGGFRGTMEADRGMEGLISPTEAMGNSNGASSSCPGWLRKELENAEFIPMPDSPSPLSAAFSESEKDTLPYEELQGLKVASEAPLEHKPQVEASSPRLNPAVTCAGKGTPLTPPACACSSLQVEVERLQGLVLKCLAEQQKLQQENLQIFTQLQKLNKKLEGGQQVGMHSKGTQTAKEEMEMDPKPDLDSDSWCLLGTDSCRPSL	
		EML4 (endogenous), echinoderm microtubule-associated protein-like 4 (protein, UniProt Q9HC35 1-981) MDGFAGSLDDSISAASTSDVQDRLSALESRVQQQEDEITVLKAALADVLRRLAISEDHVASVKKSVSSKGQPSPRAVIPMSCITNGSGANRKPSHTSAVSIAGKETLSSAAKSGTEKKKEKPQGQREKKEESHSNDQSPQIRASPSPQPSSQPLQIHRQTPESKNATPTKSIKRPSPAEKSHNSWENSDDSRNKLSKIPSTPKLIPKVTKTADKHKDVIINQEGEYIKMFMRGRPITMFIPSDVDNYDDIRTELPPEKLKLEWAYGYRGKDCRANVYLLPTGKIVYFIASVVVLFNYEERTQRHYLGHTDCVKCLAIHPDKIRIATGQIAGVDKDGRPLQPHVRVWDSVTLSTLQIIGLGTFERGVGCLDFSKADSGVHLCIIDDSNEHMLTVWDWQKKAKGAEIKTTNEVVLAVEFHPTDANTIITCGKSHIFFWTWSGNSLTRKQGIFGKYEKPKFVQCLAFLGNGDVLTGDSGGVMLIWSKTTVEPTPGKGPKGVYQISKQIKAHDGSVFTLCQMRNGMLLTGGGKDRKIILWDHDLNPEREIEVPDQYGTIRAVAEGKADQFLVGTSRNFILRGTFNDGFQIEVQGHTDELWGLATHPFKDLLLTCAQDRQVCLWNSMEHRLEWTRLVDEPGHCADFHPSGTVVAIGTHSGRWFVLDAETRDLVSIHTDGNEQLSVMRYSIDGTFLAVGSHDNFIYLYVVSENGRKYSRYGRCTGHSSYITHLDWSPDNKYIMSNSGDYEILYWDIPNGCKLIRNRSDCKDIDWTTYTCVLGFQVFGVWPEGSDGTDINALVRSHNRKVIAVADDFCKVHLFQYPCSKAKAPSHKYSAHSSHVTNVSFTHNDSHLISTGGKDMSIIQWKLVEKLSLPQNETVADTTLTKAPVSSTESVIQSNTPTPPPSQPLNETAEEESRISSSPTLLENSLEQTVEPSEDHSEEESEEGSGDLGEPLYEEPCNEISKEQAKATLLEDQQDPSPSS	binds
